Values quoted from earlier work, collected in patent publication EP0358508A2, “Novel immunosuppressant compound” (MERCK & CO. INC., priority 1988, dated 1990).
At least one structure is not confirmed: it was looked up by name or label, or the drawing left a doubt.

Details: reputed, per EPO Publication No. 0184162; cited from earlier work

C=CC[C@@H]1/C=C(\C)C[C@H](C)C[C@H](OC)[C@H]2O[C@@](O)(C(=O)C(=O)N3CCCC[C@H]3C(=O)O[C@H](/C(C)=C/[C@@H]3CC[C@@H](O)[C@H](OC)C3)[C@H](C)[C@@H](O)CC1=O)[C@H](C)C[C@@H]2OC [FK-506]
effectiveness relative to cyclosporin: 100 times
